Laboratory results reported in PubChem BioAssay AID493014 (National Center for Advancing Translational Sciences (NCATS), 2011).
The list shows a part of the results. The main result of the screen is listed elsewhere. These columns were measured beside it and carry no call. The list favours compounds with an active or inconclusive main result. The note in brackets gives the kind of curve behind each potency; many fits are weak.

Experiment: qHTS Assay to Find Inhibitors of Chronic Active B-Cell Receptor Signaling
Conditions: ABC-DLBCL IkBa-CBG/CBR reporter, luminescence ratio (green luciferase fused to IkBa over red control in TMD8 lymphoma cells), 4 h
Outline: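 Concentration-response series (up to 46 uM) were applied to TMD8 dual-reporter cells for 4 h at 37C with doxycycline. Green/red ratio, after filter-overlap correction, defined %Activity; red signal alone was normalised to basal cells and zero luminescence.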

[1] = measured here: CBR red luminescence, cell number

Structure (SMILES) | AC50 [1] | AC50 (measured here: IkBa-CBG green luminescence)
Cc1ccc(NC(=O)c2ccc(S(=O)(=O)N3CCCC3)cc2)nc1 | 1.64 µM [falling, partial curve, poor fit] | –
CCOC(=O)N/N=C/c1c(F)c(F)c(F)c(F)c1F | 23.1 µM [falling, single point] | –
CCC(C)NC(=O)CS(=O)Cc1nc(-c2cccc(OC)c2)oc1C (configuration not stated) | 0.0058 µM [rising, full curve, poor fit] | –
Cn1nnnc1SCC(=O)NNC(=O)c1ccc(Cl)cc1 | 35.5 µM [rising, single point] | –
CCN(CC)c1ccc(/C=N/NC(=O)Nc2ccccc2)cc1 | 0.178 µM [rising, full curve, poor fit] | –
CCOC(=O)c1c(-c2ccc(OC)cc2)csc1/N=C/N(C)C | 11.6 µM [rising, partial curve, poor fit] | –
CCc1ccc(C(=O)COC(=O)c2n[nH]c3ccccc23)cc1 | 8.91 µM [falling, partial curve] | –
Cc1ccc(C2C3=C(CCCC3=O)Nc3c2c(C)nn3-c2ccccn2)o1 (configuration not stated) | 11.2 µM [falling, partial curve, poor fit] | –
CCNC(=O)COc1ccc(CC)cc1 | 32.6 µM [rising, partial curve, poor fit] | –
Cc1noc(C)c1C(=O)Nc1ccccn1 | 3.66 µM [rising, single point] | –
O=C(Nc1ccccc1)Nc1nc2ccccc2s1 | 3.98 µM [falling, partial curve, poor fit] | –
CCCCCCOc1ccc(/C=c2\s/c(=C(/C#N)C(=O)NCc3ccco3)n(-c3ccccc3)c2=O)cc1 | 16.4 µM [falling, single point] | –
O=C(CSCc1ccccc1Cl)Nc1ccc2c(c1)OCCO2 | 1.41 µM [rising, partial curve] | –
CCOC(=O)c1c(NC(=O)c2ccc(Br)cc2)sc2c1CCCC2 | 20 µM [falling, partial curve, poor fit] | –
O=C(c1cccc(S(=O)(=O)N2CCOCC2)c1)N1CCN(S(=O)(=O)c2cccc([N+](=O)[O-])c2)CC1 | 29.1 µM [falling, single point] | –
CN1CCC(=NNC(=O)C(=O)Nc2ccc(F)cc2)CC1 | 12.6 µM [falling, partial curve] | –
O=C(Nc1ccccc1F)Nc1cc(Cl)ccc1-n1cncn1 | 0.562 µM [rising, partial curve, poor fit] | –
CCn1cc(C(=O)N2CCN(C(=O)c3ccco3)CC2)c2cc(OC)c(OC)cc2c1=O | 3.66 µM [rising, full curve, poor fit] | –
CCOC(=O)c1cc2c(=O)n3cccc(C)c3nc2n(Cc2ccco2)c1=NC(=O)c1cccnc1 | 0.58 µM [falling, full curve, poor fit] | –
O=C(N/N=C/c1cccnc1)c1ccccc1Br | 3.16 µM [falling, partial curve] | –
O=C1/C(=C/c2ccc(O)cc2)SC(=S)N1CC1CCCO1 (configuration not stated) | 35.5 µM [falling, single point] | –

Rewritten as tab-separated lines: part of the list above
Structure (SMILES)	AC50 [1]	AC50 (measured here: IkBa-CBG green luminescence)
Cc1ccc(NC(=O)c2ccc(S(=O)(=O)N3CCCC3)cc2)nc1	1.64 µM [falling, partial curve, poor fit]	–
CCOC(=O)N/N=C/c1c(F)c(F)c(F)c(F)c1F	23.1 µM [falling, single point]	–
CCC(C)NC(=O)CS(=O)Cc1nc(-c2cccc(OC)c2)oc1C (configuration not stated)	0.0058 µM [rising, full curve, poor fit]	–
CCN(CC)c1ccc(/C=N/NC(=O)Nc2ccccc2)cc1	0.178 µM [rising, full curve, poor fit]	–
CCc1ccc(C(=O)COC(=O)c2n[nH]c3ccccc23)cc1	8.91 µM [falling, partial curve]	–
Cc1ccc(C2C3=C(CCCC3=O)Nc3c2c(C)nn3-c2ccccn2)o1 (configuration not stated)	11.2 µM [falling, partial curve, poor fit]	–
CCCCCCOc1ccc(/C=c2\s/c(=C(/C#N)C(=O)NCc3ccco3)n(-c3ccccc3)c2=O)cc1	16.4 µM [falling, single point]	–
CCOC(=O)c1c(NC(=O)c2ccc(Br)cc2)sc2c1CCCC2	20 µM [falling, partial curve, poor fit]	–
CN1CCC(=NNC(=O)C(=O)Nc2ccc(F)cc2)CC1	12.6 µM [falling, partial curve]	–
CCOC(=O)c1cc2c(=O)n3cccc(C)c3nc2n(Cc2ccco2)c1=NC(=O)c1cccnc1	0.58 µM [falling, full curve, poor fit]	–
O=C(N/N=C/c1cccnc1)c1ccccc1Br	3.16 µM [falling, partial curve]	–

Next records follow.

Structure (SMILES) | AC50 [1] | AC50 (measured here: IkBa-CBG green luminescence)
CCOc1cc(-c2conc2N)cc(OCC)c1OCC | 0.092 µM [rising, full curve, poor fit] | –
C=CCNC(=O)c1ccc(-c2ccc([N+](=O)[O-])cc2)o1 | 29.1 µM [rising, single point] | –
O=C1CN(C(=O)COC(=O)/C=C/c2ccc(OC(F)F)cc2)c2ccccc2N1 | 16.4 µM [rising, partial curve, poor fit] | –
Cc1ccccc1CC1(CO)CCCN(Cc2ccc(C#CC(C)(C)O)cc2)C1 (configuration not stated) | 17.8 µM [falling, partial curve, poor fit] | –
CCN1CCN(S(=O)(=O)c2ccc(OC)c(Br)c2)CC1 | 6.51 µM [rising, single point] | –
Cc1ccc(CCNC(=O)c2cc(C)nn2-c2ccccc2)cc1 | 6.31 µM [rising, single point] | –
O=C(NNC(=O)c1cccs1)c1ccc(Cl)c(Cl)c1 | 18.4 µM [falling, partial curve] | –
Clc1ccc(-c2nnc(-c3ccccc3)c(-c3ccccc3)n2)cc1 | 1.41 µM [rising, partial curve, poor fit] | –
COc1ccc(NC(=O)/C(Cl)=C(/Cl)S(=O)Cc2ccc(C)cc2)cn1 (configuration not stated) | 1.16 µM [falling, full curve, poor fit] | 0.82 µM [rising, full curve, poor fit]
CC(C)(C)NC(=O)CN(C(=O)c1snc(C(=O)NC2CCCCC2)c1N)c1ccc(F)cc1 | 35.5 µM [rising, single point] | –
COC(=O)C1CCN(C(=O)Cc2ccccc2OC)CC1 | 5.62 µM [falling, single point] | –
Cc1ccc(C2(C)NC(=O)N(CC(=O)Nc3ccc4c(c3)OCO4)C2=O)cc1 (configuration not stated) | 4.11 µM [rising, full curve, poor fit] | –
COc1ccc(C(=O)COC(=O)C(C(C)C)N2C(=O)C3C4C=CC(C4)C3C2=O)cc1 (configuration not stated) | 8.2 µM [rising, partial curve, poor fit] | –
COc1ccc(CNC(=O)c2sccc2C)cc1 | 3.16 µM [falling, full curve] | –
CCCCn1c(N)c(N(CC(C)C)C(=O)c2cccc(OCc3ccccc3)c2)c(=O)[nH]c1=O | 29.1 µM [falling, single point] | –
Cc1ccccc1Cn1c(=N)n(CC(O)c2ccco2)c2ccccc21 (configuration not stated) | 20.6 µM [falling, single point] | –
CN(C)N1C(N)=C(C#N)C(c2ccccc2)C2=C1CCCC2=O (configuration not stated) | 35.5 µM [falling, single point] | –
COc1ccc(CNC(=O)C2CCCN2S(=O)(=O)c2ccc(Cl)cc2)cc1 (configuration not stated) | 2.59 µM [rising, partial curve, poor fit] | –
CCOC(=O)C1(C)C=C(Nc2ccccc2)C(=O)N1c1ccccc1 (configuration not stated) | 2.82 µM [rising, full curve, poor fit] | –
O=C(Cc1ccc(Cl)cc1)NC1CC1 | 3.16 µM [rising, full curve, poor fit] | –
